Values from PubChem BioAssay AID1224830 (NIAID, 2016)
The deposit covers about 18,000 reagents; shown is a random part of them. Of all reagents, about 2,900 (16%) are marked active. 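Calls are made per well; low scores hint the gene aids the LPS response, high scores that it dampens it.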 Repeated entries: four replicate wells of each siRNA pool. Reagent sequences are not shown.

Test: 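Regulators of TLR4 signalling towards TNF-alpha in macrophage-like cells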 (primary screen)
System: human THP-1 monocytic leukaemia cells, TNF dual-luciferase reporter clone, PMA-differentiated to macrophage-like cells
Reagent: siRNA pool against human genes, 50 nM
Time to read-out: LPS for 4 h, given about 3 days after siRNA transfection
Treatment: bacterial LPS (TLR4 ligand), 10 ng/ml
Measurement: 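Ratio of firefly to renilla light, scaled to the plate median and expressed as a robust z-score per replicate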
Scale: TNF reporter robust z-score: higher = stronger TNF reporter response to LPS
Call rule: 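a well is active when its z-score exceeds 2.8 or falls below -1.5; control wells carry no call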

gene knocked down	PubChem SID	TNF reporter robust z-score	outcome
KLHL12	SID315458689	-0.12	inactive
KLHL12	SID315458689	-0.44	inactive
KLHL12	SID315458689	0.13	inactive
KLHL12	SID315458689	-0.11	inactive
BMP8A	SID315464296	-0.18	inactive
BMP8A	SID315464296	0.46	inactive
BMP8A	SID315464296	-0.11	inactive
BMP8A	SID315464296	-0.46	inactive
PRAG1	SID315462618	1	inactive
PRAG1	SID315462618	1.4	inactive
PRAG1	SID315462618	0.88	inactive
PRAG1	SID315462618	1.39	inactive
PPT2	SID315453238	-0.79	inactive
PPT2	SID315453238	-0.51	inactive
PPT2	SID315453238	0.96	inactive
PPT2	SID315453238	0.72	inactive
JRK	SID315452698	-0.22	inactive
JRK	SID315452698	0.54	inactive
JRK	SID315452698	-0.98	inactive
JRK	SID315452698	-0.33	inactive
REP15	SID315464456	-0.58	inactive
REP15	SID315464456	-0.09	inactive
REP15	SID315464456	-0.48	inactive
REP15	SID315464456	-0.25	inactive
DNAJC18	SID315463096	-0.21	inactive
DNAJC18	SID315463096	0.86	inactive
DNAJC18	SID315463096	0.12	inactive
DNAJC18	SID315463096	3.97	active
UBE3C	SID315453485	0.66	inactive
UBE3C	SID315453485	0.34	inactive
UBE3C	SID315453485	-0.01	inactive
UBE3C	SID315453485	0.11	inactive
KRTAP12-1	SID315464290	0.5	inactive
KRTAP12-1	SID315464290	0.54	inactive
KRTAP12-1	SID315464290	0.77	inactive
KRTAP12-1	SID315464290	-0.25	inactive
CTSA	SID315450728	-0.83	inactive
CTSA	SID315450728	-0.17	inactive
CTSA	SID315450728	-0.73	inactive
CTSA	SID315450728	3.44	active
NRXN3	SID315453233	-1.37	inactive
NRXN3	SID315453233	0.02	inactive
NRXN3	SID315453233	0.07	inactive
NRXN3	SID315453233	-0.22	inactive
SPINK9	SID315465078	-0.06	inactive
SPINK9	SID315465078	0.56	inactive
SPINK9	SID315465078	-0.68	inactive
SPINK9	SID315465078	0.22	inactive
CLEC4E	SID315455736	-0.04	inactive
CLEC4E	SID315455736	-0.33	inactive
CLEC4E	SID315455736	-0.7	inactive
CLEC4E	SID315455736	0.92	inactive

Targets above whose gene name starts with N or n (4):
gene knocked down	PubChem SID	TNF reporter robust z-score	outcome
NRXN3	SID315453233	-1.37	inactive
NRXN3	SID315453233	0.02	inactive
NRXN3	SID315453233	0.07	inactive
NRXN3	SID315453233	-0.22	inactive

Additional entries follow.
gene knocked down	PubChem SID	TNF reporter robust z-score	outcome
RAB34	SID315460103	1.13	inactive
RAB34	SID315460103	1.02	inactive
RAB34	SID315460103	0.85	inactive
RAB34	SID315460103	1.51	inactive
PGBD3	SID315463609	3.61	active
PGBD3	SID315463609	1.19	inactive
PGBD3	SID315463609	-0.32	inactive
PGBD3	SID315463609	0.57	inactive
WDR12	SID315457833	0.42	inactive
WDR12	SID315457833	1.57	inactive
WDR12	SID315457833	0.39	inactive
WDR12	SID315457833	0.28	inactive
SPRY4	SID315459957	-0.39	inactive
SPRY4	SID315459957	0.02	inactive
SPRY4	SID315459957	0.41	inactive
SPRY4	SID315459957	1.35	inactive
OR10A7	SID315461522	0.07	inactive
OR10A7	SID315461522	1.47	inactive
OR10A7	SID315461522	-0.34	inactive
CHRNE	SID315447935	0.09	inactive
CHRNE	SID315447935	-0.37	inactive
CHRNE	SID315447935	-0.7	inactive
CHRNE	SID315447935	-1.65	active
OR2B6	SID315455715	0.84	inactive
OR2B6	SID315455715	1.26	inactive
OR2B6	SID315455715	-0.5	inactive
OR2B6	SID315455715	-1.26	inactive
MEP1A	SID315449945	-0.6	inactive
MEP1A	SID315449945	0.45	inactive
MEP1A	SID315449945	-1.08	inactive
MEP1A	SID315449945	-0.81	inactive
SLC33A1	SID315453115	1.7	inactive
SLC33A1	SID315453115	1.47	inactive
SLC33A1	SID315453115	2.78	inactive
SLC33A1	SID315453115	2.58	inactive
RFC3	SID315451105	0.36	inactive
RFC3	SID315451105	1.06	inactive
RFC3	SID315451105	-0.13	inactive
RFC3	SID315451105	1.73	inactive
NEK10	SID315462523	0.04	inactive
NEK10	SID315462523	-0.99	inactive
NEK10	SID315462523	0.02	inactive
LRCH3	SID315460526	-0.63	inactive
LRCH3	SID315460526	-0.45	inactive
LRCH3	SID315460526	-0.19	inactive
LRCH3	SID315460526	-0.5	inactive
KCNH8	SID315461885	1.2	inactive
KCNH8	SID315461885	5.58	active
KCNH8	SID315461885	2.84	active
KCNH8	SID315461885	2.54	inactive
ZNF165	SID315452262	2.53	inactive
ZNF165	SID315452262	-0.07	inactive
ZNF165	SID315452262	-0.67	inactive
ZNF165	SID315452262	0.71	inactive
PPIF	SID315453822	0.98	inactive
PPIF	SID315453822	0.97	inactive
PPIF	SID315453822	1.76	inactive
PPIF	SID315453822	0.09	inactive
